The other results are listed elsewhere or left out.
B1: il10ra_site1_normal_mot_HHH_b1_05357_000000034_0001_23_39_H_._HHH_b2_02051_0001_0000200015_0000001_0_af2pred_0001 (protein)
chain: SSSSDREEEIEEYEEELKELAERGDREKLAQVLIRAFSLATHLKDPELLERLKELARELKNSSSS
B2: il10ra_site1_sap_21_mot_HHH_b1_05757_000000171_0001_42_57_H_._HHH_b1_06570_0001_0000600045_0000001_0_0001 (protein)
chain: SSSSSDDRVEESVKRTLRAAKQLEDEEYARLALRFALALAEWANDEELQEEVRELLEEISSSSSS
B3: il10ra_site1_sap_19_mot_HHH_b1_03277_000000286_0001_44_57_H_._HHH_b1_06592_0001_0000100008_0000001_0_0001 (protein)
chain: SSSSDQKKELVEALERMIEQAYEWGDEELVKMLLEAAELLAEDSNDPRLREIVERLEELLSSSSS
B4: il10ra_site1_normal_mot_HHH_b2_02463_af2_000000222_0001_1_19_H_._HHH_b1_05522_af2_0001_0000300019_0000001_0 (protein)
chain: SSSSDEVLELIIEIARLLIQGDLERAEELIEEVEELVKELGDPRLEEAVEILKEALEANRSSSSS
B5: il10ra_site1_sap_13_mot_HHH_b2_00943_af2_000000149_0001_1_17_H_._HHH_b1_02941_af2_0001_0000200003_0000001_0_0001 (protein)
chain: SSSSDVSREAYELSRRAAELHSEGNPEEARELLEEAEELLREAGDRVILHNVEYVLELLNSSSSS
B6: il10ra_site1_sap_21_mot_HHH_b1_04693_000000238_0001_19_36_H_._HHH_b1_05537_af2_0001_0001000030_0000002_0_0001 (protein)
chain: SSSSDEEIEEEVRELLEEAKEIEDEHEFAQVLARAMRLAYELGNPELVEEVIRVAAKWLNRSSSS
B7: il10ra_site1_normal_mot_HHH_b2_04679_000000194_0001_21_38_H_._HHH_b2_08086_0001_0000100001_0000001_0 (protein)
chain: SSSSDRQEAYELIRRAIELLSEGDPRAEEVLEELRELVEQIGSPLLEFMVRLLEQQLERLKSSSS
B8: il10ra_site1_sap_5_mot_HHH_b1_00169_000000276_0001_1_18_H_._HHH_b1_06511_0001_0000200023_0000001_0_0001 (protein)
chain: SSSSSDEHQELLELLHELIQLMLEGDEEEAQKLAEEILKLAEELNDEKVFEMAEDLLKAISSSSS
B9: il10ra_site1_normal_mot_HHH_b2_07913_000000228_0001_1_19_H_._HHH_b2_01981_af2_0001_0000700029_0000001_0_af2pred_dldesign_0_af2pred (protein)
chain: SSSSSSEHEKSQRVIDLIRKAFEVDKEEAKKLLDEALKLAEELKSPTLIHAVEAARRALESSSSS
B10: il10ra_site1_normal_mot_HHH_b1_04771_000000013_0001_40_56_H_._HHH_b1_02827_0001_0000300017_0000001_0 (protein)
chain: SSSSSELLQQALELSLEAFRLALRGNPEEAREVLEEAEELVREAGDPQLLEVIEELLRALSSSSS
B11: il10ra_site1_normal_mot_HHH_b1_01821_000000158_0001_23_39_H_._HHH_b2_02229_0001_0000100005_0000001_0 (protein)
chain: SSSSSSDEEEVEELLEEAKEIEDREELVEVLLEALRIALQAQDPELLRLVWEVFKKLVSSSSSSS
B12: il10ra_site1_sap_17_mot_HHH_b1_07286_af2_000000054_0001_1_19_H_._HHH_b2_05896_0001_0000100012_0000001_0_0001 (protein)
chain: SSSSDERYLELALRFAKRLLEAGDPEAARFMLEAARELAERDGDEELLREVEELREEVERSSSSS
B13: il10ra_site1_normal_mot_HHH_b1_05056_000000217_0001_1_20_H_._HHH_b1_07876_0001_0000200010_0000001_0 (protein)
chain: SSSSSSDEEEEVEELLEEAKHIEDPRERTEVLLEALRVALQLGDPKLLQLVWRVVKRLSSSSSSS
B14: il10ra_site1_sap_26_mot_HHH_b2_00984_000000042_0001_1_20_H_._HHH_b2_00952_0001_0000300030_0000002_0_0001 (protein)
chain: SSSSSSEEELREEVEELLEEAKQITDRRERFKVLLRALRLAIQGNDPELLQRVWKVLKELSSSSS
B15: il10ra_site1_sap_21_mot_HHH_b1_07100_000000193_0001_1_18_H_._678a1b28e3afbd0e6d42a78f97d9d1d3_0001_0001_0000400019_0000001_0_0001_af2pred_0001 (protein)
chain: SRIALLAILYALERGNPEAAERTARHLLRLLEREGDPRAELLEEVEELVKRDEEKAKELLEEILK
B16: il10ra_site1_sap_20_mot_HHH_b2_07873_af2_000000172_0001_1_19_H_._HHH_b2_08048_af2_0001_0000100001_0000001_0_0001 (protein)
chain: SSSSSNEAVELLREVVELMAEGNPEEAEKLIEEAEKVAEEEGSDVIKWQLEYIKKHIENSSSSSS
B17: il10ra_site1_normal_mot_HHH_b2_05813_000000266_0001_1_19_H_._HHH_b1_04335_0001_0000200017_0000002_0_af2pred_0001 (protein)
chain: SSSSSEEEQRFAQEVTVRVARLLQRGNPEEARELLEEAIEEAKELGNRKAKKHLEHLLKLLSSSS
B18: il10ra_site1_sap_8_mot_HHH_b2_00943_af2_000000149_0001_1_17_H_._HHH_b2_01442_af2_0001_0000100007_0000001_0_0001 (protein)
chain: SSSSFISEFSVKAVERAVKELLKRGDRERAEFLIRRALEILREMGDEEAVEELEELLEEVTSSSS
B19: il10ra_site1_normal_mot_HEEHE_3255_000000102_0001_40_55_H_._HHH_b1_05364_af2_0001_0001400095_0000001_0 (protein)
chain: SSSSDEELRKFVEELVEEFNLSEDVRNLLEIQVESLLELGFSEEEIKKRLEEAAKLIARQQSSSS
B20: il10ra_site1_normal_mot_HHH_b2_06786_000000018_0001_41_57_H_._HHH_b2_03897_af2_0001_0000400013_0000001_0 (protein)
chain: SSSSSEEERLKELEEELREALERGDTELAAELLIEALRLAIRLSDPEFLHELWKLFKRNISSSSS
B21: il10ra_site1_normal_mot_HHH_b2_06979_000000158_0001_42_57_H_._HHH_b1_05868_0001_0000200019_0000001_0 (protein)
chain: SSSSTEEAQLVHELAREAIELFRSGNPEEAQEVLEELLRLLEELGNRLLVINVEFLLRDLRSSSS
B22: il10ra_site1_sap_21_mot_HHH_b2_00230_000000227_0001_1_19_H_._HHH_b2_02666_0001_0000200015_0000002_0_0001 (protein)
chain: SSSSNEEYYIELLVEAAEVLAKNVDDPEEREELERLAEELEREGDPRLFHELSHLVSKIHLSSSS
B23: il10ra_site1_sap_30_mot_9c3e5e2d2b9ffb70dc788f52fbfab6d5_0001_1_000000198_0001_1_14_H_._HHH_b1_03906_af2_0001_0000700020_0000001_0_0001_af2pred_0001 (protein)
chain: SSSSSTEEQVERLVRVALELAKLLEDPRFVELAIRSARLVAEENNDEEAERLVEEFAEELSSSSS
B24: il10ra_site1_normal_mot_HHH_b1_00999_000000080_0001_41_55_H_._HHH_b2_04674_0001_0000200014_0000002_0 (protein)
chain: SSSSDEEERQLKELLEELKELVEEGDEERFLRVLQELIRLAFRNSDAEVLRILWELARELGSSSS
B25: il10ra_site1_normal_mot_ems_3hM_2400_000000184_0001_1_19_H_._HHH_b2_03037_0001_0000200010_0000001_0 (protein)
chain: SSSSDEEEEEEVREILEEAKHIEDEHELAQVLFEAFRRAWEIRDPEAVQLVIRVAARLNDSSSSS
B26: il10ra_site1_normal_mot_HHH_b2_06786_000000018_0001_41_57_H_._HHH_b1_04520_0001_0000400026_0000002_0 (protein)
chain: SSSSDAQRIAAKAARLAFRLNDPELLQEVWRLFKEIIETDDPRLEEELEELLEEIERLLKSSSSS
B27: il10ra_site1_normal_mot_HHH_b2_00984_000000042_0001_1_20_H_._HHH_b1_07795_af2_0001_0000100004_0000001_1 (protein)
chain: SSSSDLEEEVEELLRELEELLKRNDREEFIEVAQEASRLALEAGNAELLQEIWELIRKLRSSSSS
B28: il10ra_site1_sap_14_mot_HHH_b2_08265_af2_000000206_0001_22_38_H_._HHH_b1_01778_0001_0000100006_0000001_0_0001 (protein)
chain: SSSSSETQRIFELIKEAMELHSDGNPEEAEELVEEALELAEQNNNRLFAWQARFVLKEVRSSSSS
B29: il10ra_site1_normal_mot_HHH_b1_07835_af2_000000063_0001_1_16_H_._HHH_b2_02304_0001_0000100010_0000001_1_af2pred_0001 (protein)
chain: SSSSDEEIRERIEELLEEAKHIEDEHEVAELLAEASRLAYELRDPELARLVDKVAIELNLSSSSS
B30: il10ra_site1_normal_mot_65b8060e20531850bca9f2e11f97d954_0001_af2_000000137_0001_17_31_H_._HHH_b1_08628_0001_0000100002_0000001_0 (protein)
chain: SSSDEEQRASELFVRASRLIEEGDDEEARKLLEELRELVEEIGDPKLRISVRFLEALLRSASSSS
B31: il10ra_site1_sap_21_mot_HHH_b2_03183_af2_000000055_0001_40_56_H_._HHH_b1_01074_0001_0000100001_0000003_1_0001 (protein)
chain: SSSSDEETQELFELSREAVELDLEGNPEEARRVLEEAEELAKELGNRLFLWQLEWLLEVVNSSSS
B32: il10ra_site1_sap_24_mot_HHH_b2_05323_000000159_0001_1_18_H_._HHH_b2_02221_af2_0001_0000400020_0000001_0_0001 (protein)
chain: SSSSSSDEILKLAVEALRLAFQKNDPEALRAVWKLVRRYHEEGDERYREELEELLEELSSSSSSS
B33: il10ra_site1_sap_14_mot_HHH_b2_05984_000000071_0001_38_52_H_._HHH_b1_04566_0001_0000400036_0000002_0_0001 (protein)
chain: SSSSSDEQELIELIMRVAHLLIRNDEEHLRELLKEALEIAEELGDERAVEMLEELLKLVGSSSSS
B34: il10ra_site1_sap_16_mot_HHH_b2_06857_af2_000000179_0001_42_54_H_._HHH_b1_05051_af2_0001_0000700017_0000001_0_0001 (protein)
chain: SSSSDEDERYLRLALRFLEWLIKQGDEESARRMIRAIEDLAERAKDEEVKELVEELREELESSSS
B35: il10ra_site1_sap_18_mot_eac4c1c76330803482ec69faa85739af_0001_000000225_0001_18_35_H_._626a6266371e825a8c4874df495abcf9_0001_1_0001_0000300013_0000001_0_0001 (protein)
chain: SSSSDEETERAIKLLREAIELLSDGDPEEAREVAEEAQEVAEEAGNPLVAWQIEFLLERISSSSS
B36: il10ra_site1_normal_mot_HHH_b2_08186_000000021_0001_43_56_H_._HHH_b1_08296_af2_0001_0000500011_0000001_0 (protein)
chain: SSSSSEEEEEIERLQEELRELAEKGDDERFLRVYQRILQLVYRLGDAELLRELWELLRKRQSSSS
B37: il10ra_site1_sap_16_mot_HHH_b1_02397_af2_000000085_0001_39_57_H_._HHH_b1_00346_af2_0001_0000100014_0000001_0_0001_af2pred_0001 (protein)
chain: SSSSSYEERIRELLEEAERAAEEGDERLVAELLAKALRLAYENNDPELAREVDKVAAELLGSSSS

target: il10ra, Q13651; experiment: yeast display titration

Apparent Kd, inactive:
B1 no binding seen
B2 no binding seen
B3 no binding seen
B4 no binding seen
B5 no binding seen
B6 no binding seen
B7 no binding seen
B8 no binding seen
B9 no binding seen
B10 no binding seen
B11 no binding seen
B12 no binding seen
B13 no binding seen
B14 no binding seen
B15 no binding seen
B16 no binding seen
B17 no binding seen
B18 no binding seen
B19 no binding seen
B20 no binding seen
B21 no binding seen
B22 no binding seen
B23 no binding seen
B24 > 921 nM
B25 no binding seen
B26 no binding seen
B27 no binding seen
B28 no binding seen
B29 no binding seen
B30 no binding seen
B31 no binding seen
B32 no binding seen
B33 no binding seen
B34 no binding seen
B35 no binding seen
B36 no binding seen
B37 no binding seen

As a working copy, part of the list above:
Apparent Kd, inactive:
B14 no binding seen
B15 no binding seen
B16 no binding seen
